# According to the supplement of paper PMC12067093, “Discovery and optimisation of a covalent ligand for TRIM25 and its application to targeted protein ubiquitination” (Chemical Science, 2025):
# Sequences of proteins named here, by UniProt entry; tags and fusion partners are left off. A change or cut given only in a name is not applied to a line headed by its entry.
# UniProt Q14160: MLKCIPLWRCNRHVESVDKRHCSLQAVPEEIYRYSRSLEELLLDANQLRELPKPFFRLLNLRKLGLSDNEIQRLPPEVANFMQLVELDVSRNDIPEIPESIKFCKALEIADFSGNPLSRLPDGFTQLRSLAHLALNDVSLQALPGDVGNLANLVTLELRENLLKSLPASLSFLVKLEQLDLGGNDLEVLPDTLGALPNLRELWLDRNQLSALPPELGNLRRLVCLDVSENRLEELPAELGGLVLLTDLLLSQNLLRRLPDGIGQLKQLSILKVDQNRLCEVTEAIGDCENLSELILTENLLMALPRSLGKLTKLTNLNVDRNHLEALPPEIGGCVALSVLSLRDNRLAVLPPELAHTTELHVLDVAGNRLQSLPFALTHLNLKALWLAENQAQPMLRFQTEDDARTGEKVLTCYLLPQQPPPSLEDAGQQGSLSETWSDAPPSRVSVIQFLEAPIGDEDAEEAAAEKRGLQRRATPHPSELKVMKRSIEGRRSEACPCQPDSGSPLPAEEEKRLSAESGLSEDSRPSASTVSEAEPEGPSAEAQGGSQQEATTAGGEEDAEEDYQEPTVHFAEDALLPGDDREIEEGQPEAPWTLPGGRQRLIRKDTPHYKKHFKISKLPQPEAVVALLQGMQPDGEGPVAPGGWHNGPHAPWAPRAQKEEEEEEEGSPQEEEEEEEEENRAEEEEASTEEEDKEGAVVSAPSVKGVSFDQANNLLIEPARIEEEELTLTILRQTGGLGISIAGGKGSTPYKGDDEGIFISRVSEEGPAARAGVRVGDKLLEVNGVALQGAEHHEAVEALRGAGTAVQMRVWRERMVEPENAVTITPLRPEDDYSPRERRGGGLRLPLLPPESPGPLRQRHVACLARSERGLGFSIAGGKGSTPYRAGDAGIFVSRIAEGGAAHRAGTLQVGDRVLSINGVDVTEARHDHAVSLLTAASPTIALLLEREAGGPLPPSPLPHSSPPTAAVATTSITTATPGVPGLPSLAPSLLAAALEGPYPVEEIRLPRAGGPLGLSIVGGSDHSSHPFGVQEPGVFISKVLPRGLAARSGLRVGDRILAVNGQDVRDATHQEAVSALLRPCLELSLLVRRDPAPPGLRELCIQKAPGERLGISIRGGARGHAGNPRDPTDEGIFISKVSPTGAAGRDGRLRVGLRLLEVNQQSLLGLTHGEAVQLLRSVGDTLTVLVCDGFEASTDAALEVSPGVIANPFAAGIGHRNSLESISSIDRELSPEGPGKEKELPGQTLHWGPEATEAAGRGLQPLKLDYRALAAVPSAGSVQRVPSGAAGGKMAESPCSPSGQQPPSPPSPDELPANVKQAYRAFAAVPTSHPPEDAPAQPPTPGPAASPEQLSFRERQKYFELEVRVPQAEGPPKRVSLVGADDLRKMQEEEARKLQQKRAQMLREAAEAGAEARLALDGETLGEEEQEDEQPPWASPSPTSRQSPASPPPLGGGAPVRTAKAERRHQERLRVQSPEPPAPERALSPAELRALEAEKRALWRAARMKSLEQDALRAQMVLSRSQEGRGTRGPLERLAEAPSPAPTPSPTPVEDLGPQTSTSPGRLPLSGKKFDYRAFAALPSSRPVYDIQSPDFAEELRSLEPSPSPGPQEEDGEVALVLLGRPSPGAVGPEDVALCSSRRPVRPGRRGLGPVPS
# UniProt Q15436: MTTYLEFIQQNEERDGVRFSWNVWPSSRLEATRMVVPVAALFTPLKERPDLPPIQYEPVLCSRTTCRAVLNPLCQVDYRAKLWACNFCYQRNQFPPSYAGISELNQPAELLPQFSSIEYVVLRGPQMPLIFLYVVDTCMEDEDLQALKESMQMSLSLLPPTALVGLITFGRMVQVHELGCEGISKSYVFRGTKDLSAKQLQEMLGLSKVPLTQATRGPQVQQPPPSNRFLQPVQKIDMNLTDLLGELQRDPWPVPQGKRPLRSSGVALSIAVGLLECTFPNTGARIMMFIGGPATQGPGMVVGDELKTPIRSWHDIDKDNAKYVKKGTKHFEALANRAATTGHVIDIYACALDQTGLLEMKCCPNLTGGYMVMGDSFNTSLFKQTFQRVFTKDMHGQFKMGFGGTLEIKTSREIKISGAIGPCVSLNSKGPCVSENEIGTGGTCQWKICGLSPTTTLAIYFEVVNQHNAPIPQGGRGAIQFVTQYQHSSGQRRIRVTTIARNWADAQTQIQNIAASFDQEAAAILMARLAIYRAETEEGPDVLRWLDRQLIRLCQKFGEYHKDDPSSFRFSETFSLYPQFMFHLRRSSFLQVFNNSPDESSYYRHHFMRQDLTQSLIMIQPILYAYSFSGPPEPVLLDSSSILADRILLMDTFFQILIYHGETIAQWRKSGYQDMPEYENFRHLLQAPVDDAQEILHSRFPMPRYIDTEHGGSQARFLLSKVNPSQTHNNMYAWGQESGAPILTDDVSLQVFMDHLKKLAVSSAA
# UniProt O94979: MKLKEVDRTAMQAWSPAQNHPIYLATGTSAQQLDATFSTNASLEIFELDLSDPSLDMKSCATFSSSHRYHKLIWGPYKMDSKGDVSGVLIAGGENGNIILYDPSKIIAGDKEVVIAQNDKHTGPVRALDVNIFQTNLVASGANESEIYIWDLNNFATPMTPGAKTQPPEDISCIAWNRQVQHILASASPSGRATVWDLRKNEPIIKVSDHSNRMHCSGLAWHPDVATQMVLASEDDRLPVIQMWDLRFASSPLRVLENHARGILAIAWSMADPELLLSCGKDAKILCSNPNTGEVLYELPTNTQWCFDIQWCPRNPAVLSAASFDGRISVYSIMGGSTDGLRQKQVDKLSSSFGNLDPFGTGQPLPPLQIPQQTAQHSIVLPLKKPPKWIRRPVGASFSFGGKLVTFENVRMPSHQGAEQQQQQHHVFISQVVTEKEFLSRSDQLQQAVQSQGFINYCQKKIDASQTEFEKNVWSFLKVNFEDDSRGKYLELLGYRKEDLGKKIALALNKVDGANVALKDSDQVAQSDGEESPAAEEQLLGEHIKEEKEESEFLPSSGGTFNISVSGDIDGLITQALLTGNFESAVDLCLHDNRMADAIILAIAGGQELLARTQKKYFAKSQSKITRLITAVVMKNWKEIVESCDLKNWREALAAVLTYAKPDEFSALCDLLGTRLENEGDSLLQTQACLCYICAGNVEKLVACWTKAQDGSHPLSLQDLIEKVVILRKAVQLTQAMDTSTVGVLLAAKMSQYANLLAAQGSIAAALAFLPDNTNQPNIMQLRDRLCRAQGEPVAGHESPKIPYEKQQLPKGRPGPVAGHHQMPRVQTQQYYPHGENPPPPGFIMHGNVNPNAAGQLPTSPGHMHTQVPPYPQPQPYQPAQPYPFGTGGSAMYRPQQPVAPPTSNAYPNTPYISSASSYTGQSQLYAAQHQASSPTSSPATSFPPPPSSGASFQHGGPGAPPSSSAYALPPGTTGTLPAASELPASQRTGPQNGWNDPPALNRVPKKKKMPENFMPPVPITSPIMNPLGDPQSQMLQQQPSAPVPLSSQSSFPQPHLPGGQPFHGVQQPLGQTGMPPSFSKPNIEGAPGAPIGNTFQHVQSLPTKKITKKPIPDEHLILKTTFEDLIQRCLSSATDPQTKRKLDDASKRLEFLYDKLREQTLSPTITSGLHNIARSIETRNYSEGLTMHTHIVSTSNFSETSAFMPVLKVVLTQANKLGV
# UniProt Q0VDG4: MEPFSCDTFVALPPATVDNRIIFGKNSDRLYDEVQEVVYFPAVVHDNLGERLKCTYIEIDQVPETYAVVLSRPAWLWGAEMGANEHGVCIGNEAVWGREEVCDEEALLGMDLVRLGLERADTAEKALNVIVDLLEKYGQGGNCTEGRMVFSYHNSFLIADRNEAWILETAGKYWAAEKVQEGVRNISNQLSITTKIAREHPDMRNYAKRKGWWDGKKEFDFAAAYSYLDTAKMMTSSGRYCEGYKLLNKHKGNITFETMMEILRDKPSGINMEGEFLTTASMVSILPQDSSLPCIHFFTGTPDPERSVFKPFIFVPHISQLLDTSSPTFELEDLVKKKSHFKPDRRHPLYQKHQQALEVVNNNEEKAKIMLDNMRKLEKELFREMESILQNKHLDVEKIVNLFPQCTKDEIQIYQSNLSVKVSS
# UniProt Q15020: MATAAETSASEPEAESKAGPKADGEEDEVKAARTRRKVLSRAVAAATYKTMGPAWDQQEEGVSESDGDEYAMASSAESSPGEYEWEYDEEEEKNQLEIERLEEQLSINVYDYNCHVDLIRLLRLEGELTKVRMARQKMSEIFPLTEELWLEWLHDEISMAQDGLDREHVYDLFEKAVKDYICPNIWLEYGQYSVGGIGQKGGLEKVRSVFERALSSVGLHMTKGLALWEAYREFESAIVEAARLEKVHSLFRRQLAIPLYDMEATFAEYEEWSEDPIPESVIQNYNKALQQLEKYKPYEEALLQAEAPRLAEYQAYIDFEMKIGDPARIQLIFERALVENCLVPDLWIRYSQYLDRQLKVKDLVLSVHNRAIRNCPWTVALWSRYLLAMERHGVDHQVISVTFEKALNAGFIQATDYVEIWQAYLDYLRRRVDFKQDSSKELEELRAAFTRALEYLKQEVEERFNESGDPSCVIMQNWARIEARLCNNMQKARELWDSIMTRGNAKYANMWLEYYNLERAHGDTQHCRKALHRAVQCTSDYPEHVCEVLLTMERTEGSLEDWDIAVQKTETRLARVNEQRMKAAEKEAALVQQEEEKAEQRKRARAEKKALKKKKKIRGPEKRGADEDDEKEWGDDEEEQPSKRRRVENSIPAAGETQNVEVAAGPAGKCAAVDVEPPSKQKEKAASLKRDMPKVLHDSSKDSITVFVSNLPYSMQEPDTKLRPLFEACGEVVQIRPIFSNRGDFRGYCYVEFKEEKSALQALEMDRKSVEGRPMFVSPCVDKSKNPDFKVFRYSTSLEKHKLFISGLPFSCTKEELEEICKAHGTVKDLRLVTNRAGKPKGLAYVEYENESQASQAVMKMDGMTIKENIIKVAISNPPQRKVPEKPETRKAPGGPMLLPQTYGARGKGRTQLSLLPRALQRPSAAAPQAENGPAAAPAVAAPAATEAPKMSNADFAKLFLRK
# UniProt P53992: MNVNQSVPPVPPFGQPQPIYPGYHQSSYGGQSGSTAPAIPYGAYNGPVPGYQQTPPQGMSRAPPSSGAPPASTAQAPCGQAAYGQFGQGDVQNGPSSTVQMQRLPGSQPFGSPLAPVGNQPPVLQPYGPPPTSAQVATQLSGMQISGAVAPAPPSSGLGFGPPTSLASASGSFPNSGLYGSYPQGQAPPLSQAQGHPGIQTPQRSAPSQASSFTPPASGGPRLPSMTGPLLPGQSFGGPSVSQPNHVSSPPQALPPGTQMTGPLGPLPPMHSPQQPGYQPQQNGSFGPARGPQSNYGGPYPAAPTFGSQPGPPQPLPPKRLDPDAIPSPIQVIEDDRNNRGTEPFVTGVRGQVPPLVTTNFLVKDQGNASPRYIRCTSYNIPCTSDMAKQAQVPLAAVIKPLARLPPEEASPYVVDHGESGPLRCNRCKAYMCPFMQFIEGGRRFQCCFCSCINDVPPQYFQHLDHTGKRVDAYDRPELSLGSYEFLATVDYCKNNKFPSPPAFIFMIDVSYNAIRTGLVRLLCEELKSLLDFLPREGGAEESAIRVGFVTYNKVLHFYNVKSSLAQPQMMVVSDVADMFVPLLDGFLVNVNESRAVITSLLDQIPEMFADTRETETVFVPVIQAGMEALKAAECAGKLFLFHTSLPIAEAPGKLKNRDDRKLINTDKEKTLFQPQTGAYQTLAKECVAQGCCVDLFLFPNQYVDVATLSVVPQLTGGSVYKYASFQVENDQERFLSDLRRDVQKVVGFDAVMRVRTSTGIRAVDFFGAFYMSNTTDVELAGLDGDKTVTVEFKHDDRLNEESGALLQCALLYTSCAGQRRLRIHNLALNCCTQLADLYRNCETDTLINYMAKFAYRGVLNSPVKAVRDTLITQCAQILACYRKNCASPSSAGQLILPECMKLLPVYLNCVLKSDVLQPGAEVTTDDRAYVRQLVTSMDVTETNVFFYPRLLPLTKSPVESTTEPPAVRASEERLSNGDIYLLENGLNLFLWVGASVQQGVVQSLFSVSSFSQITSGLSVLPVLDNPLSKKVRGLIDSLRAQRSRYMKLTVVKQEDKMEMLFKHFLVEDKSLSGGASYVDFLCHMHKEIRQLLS
# UniProt Q9Y3A5: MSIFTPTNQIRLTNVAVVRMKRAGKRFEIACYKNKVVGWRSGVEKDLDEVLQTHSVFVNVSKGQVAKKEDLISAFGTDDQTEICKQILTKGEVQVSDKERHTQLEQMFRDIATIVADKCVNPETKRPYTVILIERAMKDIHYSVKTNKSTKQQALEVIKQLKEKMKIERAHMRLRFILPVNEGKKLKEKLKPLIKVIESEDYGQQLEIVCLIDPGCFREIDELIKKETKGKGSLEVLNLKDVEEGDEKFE
# UniProt Q9NR31: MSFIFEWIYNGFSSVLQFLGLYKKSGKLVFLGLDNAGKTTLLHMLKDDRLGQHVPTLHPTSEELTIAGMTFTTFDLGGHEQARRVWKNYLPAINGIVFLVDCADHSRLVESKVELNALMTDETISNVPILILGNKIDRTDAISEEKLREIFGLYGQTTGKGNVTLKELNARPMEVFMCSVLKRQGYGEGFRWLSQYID
# The other results are listed elsewhere or left out.
# Compound: Cc1cc(ccc1-c1ccccc1)C(=O)N1CCCN(CC1)C(=O)CCl [compound 10]
# Experiment: probe-labelled cysteine peptide fold change vs DMSO (competition) (log2 fold change); higher = less target engagement (more negative = stronger competition)
# Details: 10 µM; THP-1; incubation time: 4 h
# 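Further: competitive profiling in live THP-1 cells: cysteine peptides tagged with an iodoacetamide desthiobiotin (IA-DTB) probe, intensity after compound treatment relative to DMSO-treated cells.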
row,Target,probe-labelled cysteine peptide fold change
1,SCML2_Q9UQR0_324_EKPLPVICSTSAASLK (UniProt Q9UQR0),-0.148
2,SCRIB_Q14160_334_NHLEALPPEIGGCVALSVLSLR (UniProt Q14160),0.399
3,SEC61A1_P61619_13_FLEVIKPFCVILPEIQKPERK (UniProt P61619),0.0585
4,SEC23A_Q15436_350_AATTGHVIDIYACALDQTGLLEMK (UniProt Q15436),-0.0364
5,SEPT5_Q99719_193_ADCLVPSEIR (UniProt Q99719),-0.101
6,SEC31A_O94979_279_GILAIAWSMADPELLLSCGK (UniProt O94979),-0.305
7,SDSL_Q96GA7_276_MLVEPACGAALAAIYSGLLR (UniProt Q96GA7),0.15
8,SCRN3_Q0VDG4_406_IVNLFPQCTK (UniProt Q0VDG4),-0.0454
9,SBNO1_A3KN83_425_QLLHWCGDDFDGVIVFDECHK (UniProt A3KN83),0.101
10,SART3_Q15020_729_LRPLFEACGEVVQIRPIFSNR (UniProt Q15020),0.0638
11,SEC16A_O15027_1451_FSVPHVCAR (UniProt O15027),0.00133
12,SEC24C_P53992_910_LLPVYLNCVLK (UniProt P53992),-0.0639
13,SBF1_O95248_896_LLPGEECVLDGLR (UniProt O95248),-0.123
14,SATB1_Q01826_529_SQGWLCELLR (UniProt Q01826),-0.0884
15,SCYL1_Q96KG9_309_SLDAFPEDFCR (UniProt Q96KG9),-0.0616
16,SBDS_Q9Y3A5_210_VIESEDYGQQLEIVCLIDPGCFR (UniProt Q9Y3A5),0.00796
17,SDCBP_O00560_239_NGLLTEHNICEINGQNVIGLK (UniProt O00560),-0.0194
18,SEC23A_Q15436_61_ERPDLPPIQYEPVLCSR (UniProt Q15436),-0.176
19,SEC31A_O94979_644_EIVESCDLK (UniProt O94979),-0.1
20,SEMA4D_Q92854_370_PRPGACIDSEAR (UniProt Q92854),-0.224

row,Target,probe-labelled cysteine peptide fold change
1,SATB1_Q01826_78_GTMLPVFCVVEHYENAIEYDCKEEHAEFVLVR (UniProt Q01826),0.00518
2,SEC24C_P53992_452_FQCCFCSCINDVPPQYFQHLDHTGKR (UniProt P53992),-0.0315
3,SEC24D_O94855_573_AADCPGK (UniProt O94855),0.0793
4,SEC23B_Q15437_61_ERPDLPPVQYEPVLCSRPTCK (UniProt Q15437),-0.125
5,SEL1L_Q9UBV2_153_LWCATTYDYK (UniProt Q9UBV2),-0.068
6,SEL1L3_Q68CR1_475_QEACHLHNSYLDLQR (UniProt Q68CR1),0.18
7,SDHA_P31040_475_ACALSIEESCRPGDK (UniProt P31040),0.0324
8,SEC24C_P53992_816_HDDRLNEESGALLQCALLYTSCAGQR (UniProt P53992),0.148
9,SART3_Q15020_780_PMFVSPCVDK (UniProt Q15020),-0.00442
10,SEMA4A_Q9H3S1_514_DPHCAWDPESR (UniProt Q9H3S1),0.0945
11,SEC24D_O94855_431_LDHYEKPELSLGSYEYVATLDYCR (UniProt O94855),0.288
12,SCRIB_Q14160_22_HCSLQAVPEEIYR (UniProt Q14160),0.0988
13,SEC24C_P53992_816_LNEESGALLQCALLYTSCAGQR (UniProt P53992),-0.0652
14,SEC63_Q9UGP8_295_KNEPPLTCPYSLK (UniProt Q9UGP8),-0.404
15,SATB1_Q01826_91_GTMLPVFCVVEHYENAIEYDCKEEHAEFVLVR (UniProt Q01826),-0.0836
16,SAR1A_Q9NR31_178_PMEVFMCSVLK (UniProt Q9NR31),-0.033
17,SART3_Q15020_114_LEEQLSINVYDYNCHVDLIR (UniProt Q15020),0.195
18,SEC13_P55735_299_ESVDGQWVCISDVNK (UniProt P55735),0.282
19,SCAF11_Q99590_752_QMNENSVTHCSENNMPSSDLADEK (UniProt Q99590),0.0241
